At least one structure is not confirmed: it was looked up by name or label, or the drawing left a doubt.
Test system: U266 cells
Experiment: KHYG-1 NK cell cytotoxicity against calcein-AM-labeled U266 cells
Assay type: cell-based
Conditions: KHYG-1 cells, Dex 25-250 nM with or without Pom 0.25 and 1 μM, 48 h, E/T 2.5/1
Description: KHYG-1 cells were cultured with pomalidomide (0.25-1 μM) for 24 h. (A) Whole cell lysates were subjected to immunoblotting using indicated Abs. (B) KHYG-1 cells were incubated with calcein-AM-stained U266 cells for 4 h at the indicated effector/target (E/T) ratios. Percent specific lysis was calculated as described previously. (C) KHYG-1 cells were transfected with Scsi or Zap-70si, and then cultured with pomalidomide (0.25 μM) for 72 h in the absence of IL-2. Viable cell number was determined, and cells were then incubated with calcein AM-labeled U266 target cells for 4 h at indicated effector/target (E/T) ratios. Percent specific lysis was calculated as described previously. […] Cell growth was assessed by MTT assay. […] Percent specific lysis was calculated as previously described.
(A) KHYG-1 cells were transfected with Scsi or CRBNsi. […] Cells were counted and incubated with calcein AM-labeled U266 for 4 h at indicated effector/target (E/T) ratios.
(A, B) KHYG-1 cells were transfected with scrambled (Sc) or Zap-70 siRNAs, and then cultured for 72 h with lenalidomide (0.5 μM), in the absence of IL-2 (A) The viable cell number was measured by trypan-blue dye exclusion. […] Percent specific lysis was calculated as described previously. *: p<0.01 compared with Scsi.
KHYG-1 cells were transfected with scrambled (Sc) or IKZF3 siRNAs. […] Percent specific lysis was calculated as previously described. […]

C[C@@H]1C[C@H]2[C@@H]3CCC4=CC(=O)C=C[C@]4(C)[C@@]3(F)[C@@H](O)C[C@]2(C)[C@@]1(O)C(=O)CO [Dex, dexamethasone]
NK cell activity against U266 cells with dexamethasone: significantly downregulated NK cell activity, even in the presence of Pom

— patent US20240216354A1, “IMMUNOMODULATORY IMIDE DRUGS AS ZETA-CHAIN-ASSOCIATED PROTEIN KINASE 70 (ZAP70) AGONISTS AND USES THEREOF” (Dana-Farber Cancer Institute, Inc., priority 2019, published 2024)
